# Library screen at single concentrations

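Cell assay of Leishmania donovani living inside macrophages; the read-out is not stated. Compounds at 30 µM. Higher reads as stronger inhibition (inferred: compounds with an IC50 in retests scored well above the rest). About 69,000 compounds were tested under these conditions; 1.5% (about 1,000) showed 50% or more at least once.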

The filed quantity is “Percent Effect” (%). How 0% and 100% were set is not recorded. Most values in the screen are low, and negative values occur. This is an unselected part of the compounds tested. Two or more numbers in one place are separate tests of the same structure; such repeats can differ widely.

CN1CCC(N(C)C(=O)c2cnn(-c3ccccc3Br)c2N)CC1 gave 19.28%. With O=C(O)C(F)(F)F.O=C(O)C(F)(F)F.c1ccc(N2CCC3(COCCN(Cc4cccs4)C3)C2)nc1 (configuration not stated) the screen gave -15.99%. Result for COc1ccc(C(=O)N2CCCC(NC(=O)C(C)C)C2)c(O)c1 (configuration not stated) was -16.83%. Cc1nc(CC(=O)N2CCN(CCOc3ccccc3)CC2)cs1 gave 20.51%. CSc1ccc2cc(CN(C)CCc3cn[nH]c3)c(=O)[nH]c2c1 read 1.511%.

Result for OCC(CO)Nc1ccc2c(Cl)ccc(Cl)c2n1 was 28.55%. Result for CN(C)c1ccc(-c2noc([C@@H]3CCCN3)n2)cn1 was 2.083%. CCSc1cc(C(=O)NC2CCN(C(=O)c3ccccc3)CC2)ccn1 gave 15.43% and 33.87%. Result for CCC(C)N(Cc1cccnc1)Cc1ccccc1Cn1cccn1 (configuration not stated) was 1.19%. CC(C)(C)n1nnnc1CN(Cc1ccccc1)Cc1ccccc1Cl read -43.37%.

Cc1ccc(CN2Cc3nnn(C)c3C(COCc3ccccn3)C2)s1.O=C(O)C(F)(F)F.O=C(O)C(F)(F)F (configuration not stated) read -2.272%. With Cn1nccc1CNC(=O)Nc1cc(C(F)(F)F)c[nH]c1=O the screen gave 23.98%. Result for CO[C@@]1(C)C[C@@H](O)C12CCN(C(=O)c1ccccc1C(C)=O)CC2 was 28.05%. CN1CCOCC2(CCN(Cc3ccc[nH]3)CC2)C1.O=C(O)C(F)(F)F.O=C(O)C(F)(F)F gave 7.051%. COCCN1CCN(Cc2cccc(C(=O)N(C)C)c2)CC1 read 31.05%.

For CN(C)C(=O)c1cncnc1-c1ccc(CNC(=O)C2CC2)cc1 the result was -0.09696%. CC(=O)N1CCC(c2nnc3ccc(C(=O)NC(C)C)cn23)C1 (configuration not stated) read 25.03%. For Cn1c(=O)oc2ccc(Nc3ncc(C#N)cc3Cl)cc21 the result was 7.359%. Result for COc1cccc(S(=O)(=O)Cc2noc(CC(C)C)n2)c1 was -68.81%. Result for CN(C)CCNC(=O)c1ccc(OC2CCN(C(=O)CO)CC2)c(Cl)c1 was -6.97%.

With COc1ccccc1-c1cc(C(=O)N(C)C)c2cnn(C)c2n1 the screen gave 2.063%. CNC(=O)C1CCCCN1C(=O)c1n[nH]c(=O)c2ccccc12 (configuration not stated) gave -2.397%. Result for CCN(Cc1ccc(C)o1)C(=O)C(C)n1ccnc1C(C)C (configuration not stated) was 18.37%. Cc1ccc(C2(CN3CCN(Cc4cncn4C)CC3)CC2)cc1.Cl read 23.71%. For O=C1NCC2CN(Cc3ccccc3OCc3ccccn3)CCN12 (configuration not stated) the result was 19.33%.

Result for CC(C)c1noc(CS(=O)(=O)CC(=O)NCC(F)(F)F)n1 was 26.9%. Result for O=C(Cc1ccsc1)N1CCCC(CNS(=O)(=O)Cc2ccccc2)C1 (configuration not stated) was 21.5%. Cc1ccc(CNC2(Cc3cc(C(C)(C)O)on3)COC2)o1 read 17.08%. Cc1cc(C)n(CC2CN(Cc3nc(C)c(C)o3)CCO2)n1 (configuration not stated) read -3.417%.

Once more, the final 3:

With O=C(Cc1ccsc1)N1CCCC(CNS(=O)(=O)Cc2ccccc2)C1 (configuration not stated) the screen gave 21.5%.
With Cc1ccc(CNC2(Cc3cc(C(C)(C)O)on3)COC2)o1 the screen gave 17.08%.
With Cc1cc(C)n(CC2CN(Cc3nc(C)c(C)o3)CCO2)n1 (configuration not stated) the screen gave -3.417%.

Source: ChEMBL document CHEMBL3988442, “University of Dundee, Small-Polar-MMV Screening Library” (2021).